In article PMC8379230:
Results are given in words; binding and its absence hold for the method and conditions named. In cells and extracts the contact can be indirect. Some entries that bind do so weakly or less than the wild type. Values belong to the molecule of their own block, whether it stands above or below them.

Sequences of proteins named here, by UniProt entry; tags and fusion partners are left off.
UniProt O97159: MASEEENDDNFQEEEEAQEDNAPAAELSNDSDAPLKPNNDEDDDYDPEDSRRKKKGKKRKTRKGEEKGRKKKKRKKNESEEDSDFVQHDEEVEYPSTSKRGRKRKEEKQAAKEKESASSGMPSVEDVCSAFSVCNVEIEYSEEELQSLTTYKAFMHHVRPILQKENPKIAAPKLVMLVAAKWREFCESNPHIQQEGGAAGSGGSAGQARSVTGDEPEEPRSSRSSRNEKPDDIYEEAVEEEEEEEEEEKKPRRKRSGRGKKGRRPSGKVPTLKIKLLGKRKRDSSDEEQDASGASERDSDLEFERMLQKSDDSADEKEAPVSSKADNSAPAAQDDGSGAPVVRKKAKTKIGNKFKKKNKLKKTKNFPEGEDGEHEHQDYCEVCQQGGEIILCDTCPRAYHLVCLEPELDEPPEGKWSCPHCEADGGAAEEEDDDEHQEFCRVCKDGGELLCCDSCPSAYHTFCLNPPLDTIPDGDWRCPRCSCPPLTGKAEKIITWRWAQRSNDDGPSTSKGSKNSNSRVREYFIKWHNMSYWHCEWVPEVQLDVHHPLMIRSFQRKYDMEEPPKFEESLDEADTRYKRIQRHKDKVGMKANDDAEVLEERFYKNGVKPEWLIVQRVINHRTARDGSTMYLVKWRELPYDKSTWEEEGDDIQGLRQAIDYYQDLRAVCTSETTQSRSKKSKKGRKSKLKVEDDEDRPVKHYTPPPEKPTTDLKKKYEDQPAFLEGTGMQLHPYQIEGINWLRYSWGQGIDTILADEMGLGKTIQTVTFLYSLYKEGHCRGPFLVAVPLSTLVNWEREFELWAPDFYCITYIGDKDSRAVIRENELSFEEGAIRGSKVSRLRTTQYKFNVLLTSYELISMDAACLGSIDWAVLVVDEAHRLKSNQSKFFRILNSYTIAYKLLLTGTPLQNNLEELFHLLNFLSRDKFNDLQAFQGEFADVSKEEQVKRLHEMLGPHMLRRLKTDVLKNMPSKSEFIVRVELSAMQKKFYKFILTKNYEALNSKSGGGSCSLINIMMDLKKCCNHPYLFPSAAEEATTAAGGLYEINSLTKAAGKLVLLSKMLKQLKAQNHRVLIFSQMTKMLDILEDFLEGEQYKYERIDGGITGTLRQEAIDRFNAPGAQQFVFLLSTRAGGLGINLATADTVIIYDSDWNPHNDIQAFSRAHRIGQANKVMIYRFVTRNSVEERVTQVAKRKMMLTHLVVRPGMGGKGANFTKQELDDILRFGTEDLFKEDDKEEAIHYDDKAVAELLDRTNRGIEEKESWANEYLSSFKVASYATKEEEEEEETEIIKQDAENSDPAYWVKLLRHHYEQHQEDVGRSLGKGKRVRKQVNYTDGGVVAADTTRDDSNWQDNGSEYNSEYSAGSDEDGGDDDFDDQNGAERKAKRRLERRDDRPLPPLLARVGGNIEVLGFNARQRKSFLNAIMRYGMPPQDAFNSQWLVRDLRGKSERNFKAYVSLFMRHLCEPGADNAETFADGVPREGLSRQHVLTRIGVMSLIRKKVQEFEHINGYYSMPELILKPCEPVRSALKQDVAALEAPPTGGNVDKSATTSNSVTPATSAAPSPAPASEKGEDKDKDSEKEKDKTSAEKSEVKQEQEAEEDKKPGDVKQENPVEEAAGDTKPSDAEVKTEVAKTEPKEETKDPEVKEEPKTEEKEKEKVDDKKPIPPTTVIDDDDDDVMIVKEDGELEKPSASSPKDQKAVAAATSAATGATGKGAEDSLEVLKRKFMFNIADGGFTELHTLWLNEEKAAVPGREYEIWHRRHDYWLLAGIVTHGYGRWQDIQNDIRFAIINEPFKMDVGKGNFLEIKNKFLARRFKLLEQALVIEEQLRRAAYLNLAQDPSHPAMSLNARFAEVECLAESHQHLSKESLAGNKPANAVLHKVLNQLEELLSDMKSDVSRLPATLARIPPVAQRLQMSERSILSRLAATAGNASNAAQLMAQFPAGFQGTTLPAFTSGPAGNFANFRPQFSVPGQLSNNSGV
UniProt P25439: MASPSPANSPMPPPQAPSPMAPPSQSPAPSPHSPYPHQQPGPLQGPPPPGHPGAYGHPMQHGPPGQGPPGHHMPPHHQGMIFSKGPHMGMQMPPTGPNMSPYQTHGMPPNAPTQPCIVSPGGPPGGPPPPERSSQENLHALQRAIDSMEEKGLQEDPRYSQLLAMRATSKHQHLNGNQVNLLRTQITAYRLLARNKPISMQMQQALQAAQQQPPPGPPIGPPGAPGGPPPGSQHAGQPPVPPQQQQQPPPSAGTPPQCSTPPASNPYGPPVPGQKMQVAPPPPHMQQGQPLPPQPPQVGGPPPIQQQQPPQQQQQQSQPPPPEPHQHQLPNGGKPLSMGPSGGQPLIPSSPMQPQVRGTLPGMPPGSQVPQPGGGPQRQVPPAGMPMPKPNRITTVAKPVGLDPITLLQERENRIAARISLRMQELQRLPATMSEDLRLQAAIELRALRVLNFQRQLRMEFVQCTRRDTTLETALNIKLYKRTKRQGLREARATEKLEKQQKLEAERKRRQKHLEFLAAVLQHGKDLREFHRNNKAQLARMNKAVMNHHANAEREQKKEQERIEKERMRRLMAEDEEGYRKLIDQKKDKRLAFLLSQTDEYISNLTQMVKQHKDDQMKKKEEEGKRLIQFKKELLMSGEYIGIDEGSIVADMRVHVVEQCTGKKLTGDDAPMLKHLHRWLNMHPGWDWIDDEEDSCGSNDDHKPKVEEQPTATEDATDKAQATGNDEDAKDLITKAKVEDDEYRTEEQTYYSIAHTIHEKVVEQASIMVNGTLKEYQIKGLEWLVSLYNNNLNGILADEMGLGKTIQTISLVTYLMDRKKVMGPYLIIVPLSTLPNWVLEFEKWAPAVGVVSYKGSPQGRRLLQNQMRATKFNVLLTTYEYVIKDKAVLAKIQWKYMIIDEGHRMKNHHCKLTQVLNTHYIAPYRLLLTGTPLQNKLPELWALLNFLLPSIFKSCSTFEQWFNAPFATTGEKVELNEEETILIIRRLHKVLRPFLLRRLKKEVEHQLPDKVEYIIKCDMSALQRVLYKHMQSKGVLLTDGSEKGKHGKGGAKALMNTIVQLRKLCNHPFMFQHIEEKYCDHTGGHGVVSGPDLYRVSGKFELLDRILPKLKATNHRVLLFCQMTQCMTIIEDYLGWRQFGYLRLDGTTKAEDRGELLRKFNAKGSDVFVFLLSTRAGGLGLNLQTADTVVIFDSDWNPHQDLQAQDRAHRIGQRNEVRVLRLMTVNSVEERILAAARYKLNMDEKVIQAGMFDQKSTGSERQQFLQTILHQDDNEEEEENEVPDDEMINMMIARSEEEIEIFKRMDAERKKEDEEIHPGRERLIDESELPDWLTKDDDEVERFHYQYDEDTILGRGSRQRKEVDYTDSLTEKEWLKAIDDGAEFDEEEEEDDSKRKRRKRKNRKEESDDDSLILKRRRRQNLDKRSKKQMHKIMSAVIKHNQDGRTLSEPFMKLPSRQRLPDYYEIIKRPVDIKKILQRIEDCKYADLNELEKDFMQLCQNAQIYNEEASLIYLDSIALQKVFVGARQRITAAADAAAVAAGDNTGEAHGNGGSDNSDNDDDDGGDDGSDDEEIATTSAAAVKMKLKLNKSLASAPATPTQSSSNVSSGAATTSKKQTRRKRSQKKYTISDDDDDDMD
UniProt Q24368: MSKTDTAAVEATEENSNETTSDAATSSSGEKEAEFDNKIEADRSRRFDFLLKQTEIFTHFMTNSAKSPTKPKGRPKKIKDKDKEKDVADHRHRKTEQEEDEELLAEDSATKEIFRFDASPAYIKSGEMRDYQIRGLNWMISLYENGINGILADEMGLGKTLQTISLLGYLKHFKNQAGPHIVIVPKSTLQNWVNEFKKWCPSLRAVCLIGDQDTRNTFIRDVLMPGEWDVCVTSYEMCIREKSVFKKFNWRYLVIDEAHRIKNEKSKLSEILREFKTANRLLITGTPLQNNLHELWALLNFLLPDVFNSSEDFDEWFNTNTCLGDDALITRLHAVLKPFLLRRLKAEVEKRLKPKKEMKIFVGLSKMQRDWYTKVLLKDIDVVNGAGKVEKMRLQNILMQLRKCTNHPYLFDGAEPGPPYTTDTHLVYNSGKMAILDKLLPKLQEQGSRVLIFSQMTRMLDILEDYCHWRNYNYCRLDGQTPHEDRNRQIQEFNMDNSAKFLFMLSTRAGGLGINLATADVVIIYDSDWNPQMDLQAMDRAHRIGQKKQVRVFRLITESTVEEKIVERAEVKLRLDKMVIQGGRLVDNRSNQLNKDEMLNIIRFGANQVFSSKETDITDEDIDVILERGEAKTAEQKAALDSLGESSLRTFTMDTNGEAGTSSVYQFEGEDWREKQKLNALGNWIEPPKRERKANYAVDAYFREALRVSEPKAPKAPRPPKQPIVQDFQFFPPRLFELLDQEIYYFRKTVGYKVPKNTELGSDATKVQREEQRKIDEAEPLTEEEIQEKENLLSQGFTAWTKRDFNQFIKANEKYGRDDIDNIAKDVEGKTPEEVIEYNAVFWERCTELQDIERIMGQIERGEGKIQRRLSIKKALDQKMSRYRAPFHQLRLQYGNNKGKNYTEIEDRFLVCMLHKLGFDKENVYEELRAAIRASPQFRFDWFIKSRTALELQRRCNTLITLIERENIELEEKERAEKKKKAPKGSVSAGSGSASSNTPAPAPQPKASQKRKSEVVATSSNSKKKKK
UniProt Q7KU24: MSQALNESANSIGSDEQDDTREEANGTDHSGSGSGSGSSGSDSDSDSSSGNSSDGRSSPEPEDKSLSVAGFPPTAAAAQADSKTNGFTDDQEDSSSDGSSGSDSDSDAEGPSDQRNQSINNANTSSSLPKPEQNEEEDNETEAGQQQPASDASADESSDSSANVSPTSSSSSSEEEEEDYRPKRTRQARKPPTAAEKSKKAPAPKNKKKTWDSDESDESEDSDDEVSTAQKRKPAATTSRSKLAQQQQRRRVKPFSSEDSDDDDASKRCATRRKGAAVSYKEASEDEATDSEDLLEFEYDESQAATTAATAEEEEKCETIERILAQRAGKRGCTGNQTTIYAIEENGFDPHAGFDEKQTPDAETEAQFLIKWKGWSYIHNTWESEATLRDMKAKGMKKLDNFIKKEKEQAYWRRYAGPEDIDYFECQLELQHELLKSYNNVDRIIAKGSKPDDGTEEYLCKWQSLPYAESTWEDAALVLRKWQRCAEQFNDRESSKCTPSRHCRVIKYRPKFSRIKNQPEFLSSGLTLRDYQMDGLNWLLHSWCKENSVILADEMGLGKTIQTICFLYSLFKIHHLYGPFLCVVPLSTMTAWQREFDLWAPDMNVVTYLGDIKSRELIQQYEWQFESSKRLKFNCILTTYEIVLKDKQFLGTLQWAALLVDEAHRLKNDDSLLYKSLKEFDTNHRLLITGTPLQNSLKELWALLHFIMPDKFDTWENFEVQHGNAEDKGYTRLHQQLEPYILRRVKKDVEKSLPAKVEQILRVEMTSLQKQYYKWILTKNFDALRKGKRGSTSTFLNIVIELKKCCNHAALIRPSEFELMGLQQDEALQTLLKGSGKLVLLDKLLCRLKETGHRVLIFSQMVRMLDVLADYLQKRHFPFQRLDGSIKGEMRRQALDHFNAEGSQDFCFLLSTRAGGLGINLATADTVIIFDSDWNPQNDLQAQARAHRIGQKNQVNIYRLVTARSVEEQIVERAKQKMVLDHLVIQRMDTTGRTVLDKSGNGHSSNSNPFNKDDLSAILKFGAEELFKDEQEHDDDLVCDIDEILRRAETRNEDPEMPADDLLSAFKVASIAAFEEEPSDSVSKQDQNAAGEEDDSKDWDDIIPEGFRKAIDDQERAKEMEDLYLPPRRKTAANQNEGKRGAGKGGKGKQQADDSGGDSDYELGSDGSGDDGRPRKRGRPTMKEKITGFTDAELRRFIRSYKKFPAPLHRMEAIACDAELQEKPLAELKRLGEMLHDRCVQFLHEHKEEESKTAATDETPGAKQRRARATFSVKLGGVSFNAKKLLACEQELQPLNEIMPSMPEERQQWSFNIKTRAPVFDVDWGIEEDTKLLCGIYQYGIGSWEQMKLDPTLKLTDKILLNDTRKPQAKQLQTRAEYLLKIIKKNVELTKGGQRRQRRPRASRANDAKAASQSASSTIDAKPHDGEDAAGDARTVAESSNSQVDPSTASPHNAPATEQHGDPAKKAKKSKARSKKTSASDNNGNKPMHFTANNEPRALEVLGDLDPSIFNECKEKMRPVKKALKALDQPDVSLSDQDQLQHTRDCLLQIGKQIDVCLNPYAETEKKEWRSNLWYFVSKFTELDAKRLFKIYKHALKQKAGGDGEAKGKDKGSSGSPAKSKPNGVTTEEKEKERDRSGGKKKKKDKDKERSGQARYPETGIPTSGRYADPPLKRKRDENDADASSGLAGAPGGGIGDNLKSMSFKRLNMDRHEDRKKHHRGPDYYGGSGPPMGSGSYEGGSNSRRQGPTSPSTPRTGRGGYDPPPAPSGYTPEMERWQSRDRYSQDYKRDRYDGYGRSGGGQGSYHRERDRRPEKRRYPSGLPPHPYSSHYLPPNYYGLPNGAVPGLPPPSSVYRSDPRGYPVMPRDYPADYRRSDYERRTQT

Legend:
Assay in all cases: co-IP; immunoprecipitations with antibodies against Su(Hw), Brm, ISWI, Mi-2 and CHD1 from nuclear protein extracts of Drosophila S2 cells; Western blot; serum of non-immunized rabbits as negative control
[1] = biological target: T1, Suppressor of Hairy wing [Su(Hw)] (Drosophila (endogenous in S2 cells)) (UniProt P08970)
T1 sequence: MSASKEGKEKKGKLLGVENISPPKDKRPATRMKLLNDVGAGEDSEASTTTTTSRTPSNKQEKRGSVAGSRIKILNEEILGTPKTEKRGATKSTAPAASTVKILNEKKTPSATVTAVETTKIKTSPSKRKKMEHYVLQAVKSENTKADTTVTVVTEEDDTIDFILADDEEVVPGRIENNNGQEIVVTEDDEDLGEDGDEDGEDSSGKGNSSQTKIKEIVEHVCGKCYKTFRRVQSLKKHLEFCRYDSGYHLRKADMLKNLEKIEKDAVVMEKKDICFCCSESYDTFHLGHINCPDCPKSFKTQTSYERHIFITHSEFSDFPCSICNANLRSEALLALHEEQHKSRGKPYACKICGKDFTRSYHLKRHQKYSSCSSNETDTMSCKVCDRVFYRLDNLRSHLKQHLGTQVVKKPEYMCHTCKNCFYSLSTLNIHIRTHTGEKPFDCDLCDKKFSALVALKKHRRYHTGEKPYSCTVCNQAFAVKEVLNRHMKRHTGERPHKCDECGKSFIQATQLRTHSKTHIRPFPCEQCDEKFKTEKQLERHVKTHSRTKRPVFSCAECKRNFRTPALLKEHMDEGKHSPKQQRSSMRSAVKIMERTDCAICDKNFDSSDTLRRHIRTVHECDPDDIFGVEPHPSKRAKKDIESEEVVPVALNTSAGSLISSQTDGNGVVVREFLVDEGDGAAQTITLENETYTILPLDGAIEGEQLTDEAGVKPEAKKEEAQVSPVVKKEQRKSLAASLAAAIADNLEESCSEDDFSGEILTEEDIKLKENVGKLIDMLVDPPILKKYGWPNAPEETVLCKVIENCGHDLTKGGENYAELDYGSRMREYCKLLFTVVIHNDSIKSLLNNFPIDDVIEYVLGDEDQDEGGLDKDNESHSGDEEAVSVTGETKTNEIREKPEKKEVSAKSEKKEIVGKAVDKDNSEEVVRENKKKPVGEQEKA

[2] = biological target: Mi-2 (CHD family chromatin remodeler) (Drosophila (endogenous in S2 cells)) (UniProt O97159)
[3] = biological target: Brahma (SWI/SNF family chromatin remodeler) (Drosophila (endogenous in S2 cells)) (UniProt P25439)
[4] = biological target: ISWI (ISWI family chromatin remodeler) (Drosophila (endogenous in S2 cells)) (UniProt Q24368)
[5] = biological target: CHD1 (CHD family chromatin remodeler) (Drosophila (endogenous in S2 cells)) (UniProt Q7KU24)

binding [1]: binds
Molecule: Brahma (SWI/SNF family chromatin remodeler) (from UniProt P25439 1-1638)

binding [1]: binds
Molecule: CHD1 (CHD family chromatin remodeler) (from UniProt Q7KU24 1-1883)

binding [1]: binds
Molecule: ISWI (ISWI family chromatin remodeler) (from UniProt Q24368 1-1027)

binding [1]: binds
Molecule: Mi-2 (CHD family chromatin remodeler) (from UniProt O97159 1-1982)

binding [2]: binds
binding [3]: binds
binding [4]: binds
binding [5]: binds
B1: Suppressor of Hairy wing [Su(Hw)] (protein, UniProt P08970 1-941)
chain: T1 sequence
